Source: PubChem BioAssay AID1259308 (NCATS, 2017)
In all, the deposit lists about 59,000 reagents; shown is an unselected part. Over the whole deposit, about 1,510 (2.6%) are marked active. 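Calls use total luciferase alone and ignore viability, so some active siRNAs may act by altering cell number.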 Unmarked entries are inactive. The numbers tell different reagents against one gene apart. No sequences are given here.

Aim: 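Candidate targets for better recombinant protein yield in mammalian cells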 (primary screen)
Cells: human HEK293 embryonic kidney cells stably expressing firefly luciferase (HEK-CMV-Luc2-Hygro)
Knock-down reagent: single siRNA against human genes, 0.8 pmol siRNA per well
Time to read-out: 72 h
Detection: 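Luciferase light (ONE-Glo) measured on one replicate plate set and viability (CellTiter-Glo) on the other, scaled to a negative control siRNA, with robust z-scores and luciferase per cell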
Direction: total luciferase, z-score and total luciferase, % of control: higher = more reporter protein produced; luciferase per cell, z-score: higher = more reporter output per viable cell; viable cells, % of control: higher = more viable cells
Rule for the call: 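An siRNA counts as active if its total luciferase robust z-score exceeds 3; genes with two or more such siRNAs out of three were retested with fresh siRNAs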
Calls: active = raised luciferase; inactive = no rise

| gene | reagent | total luciferase, z-score | total luciferase, % of control | luciferase per cell, z-score | viable cells, % of control |
| --- | --- | --- | --- | --- | --- |
| TUBB2A | 1 | -1.34 | 55.1 | -1.39 | 88.9 |
| TUBB2A | 2 | -1.03 | 61.4 | -1.33 | 97.4 |
| TUBB2A | 3 | -2.2 | 38.1 | -2.37 | 79.5 |
| RNF20 | 1 | -1.27 | 56.6 | -0.981 | 81.9 |
| RNF20 | 2 | -2.36 | 35 | -3.14 | 89.3 |
| RNF20 | 3 | -1.4 | 54.1 | -1.12 | 81.2 |
| MFSD11 | 1 | 4.25 (active) | 166 | 2.89 | 86.8 |
| MFSD11 | 2 | 2.88 | 139 | 1.58 | 103 |
| MFSD11 | 3 | 0.169 | 85.2 | -0.839 | 119 |
| RREB1 | 1 | 0.0875 | 83.6 | 0.642 | 78.9 |
| RREB1 | 2 | -0.921 | 63.6 | -1.82 | 115 |
| RREB1 | 3 | 3.09 (active) | 143 | 2.74 | 77.8 |
| PRG4 | 1 | -0.38 | 74.3 | -0.426 | 92.9 |
| PRG4 | 2 | 1.22 | 106 | 0.604 | 101 |
| PRG4 | 3 | -0.939 | 63.2 | -1.1 | 94.5 |
| CCDC13-AS2 | 1 | -0.809 | 65.8 | -0.3 | 79.6 |
| CCDC13-AS2 | 2 | 0.18 | 85.5 | 0.0432 | 94.4 |
| CCDC13-AS2 | 3 | -0.944 | 63.1 | -0.434 | 79.1 |
| GNG11 | 1 | -0.424 | 73.5 | -0.41 | 91.4 |
| GNG11 | 2 | 1.14 | 105 | 0.826 | 94 |
| GNG11 | 3 | -0.333 | 75.3 | -0.17 | 88 |
| APOA4 | 1 | 3.92 (active) | 160 | 2.72 | 87.3 |
| APOA4 | 2 | -0.0695 | 80.5 | 0.555 | 77.7 |
| APOA4 | 3 | -1.45 | 53 | -1.7 | 92.6 |
| RFK | 1 | 0.453 | 90.9 | 0.632 | 86 |
| RFK | 2 | -0.567 | 70.6 | 0.014 | 78.6 |
| RFK | 3 | 0.341 | 88.7 | 0.532 | 86.1 |
| ABCB10 | 1 | -0.887 | 64.2 | -0.193 | 75.5 |
| ABCB10 | 2 | 0.0196 | 82.3 | -0.199 | 96.9 |
| ABCB10 | 3 | -0.00249 | 81.8 | -0.277 | 98.4 |

Individual results from the entries so far:
Under “total luciferase, z-score”, RFK #2 reads -0.567
Entry for MFSD11 #1 in “luciferase per cell, z-score”: 2.89 (active)
Under “total luciferase, z-score”, TUBB2A #3 has -2.2
Under “total luciferase, % of control”, CCDC13-AS2 #1 has 65.8
Entry for CCDC13-AS2 #2 under “luciferase per cell, z-score”: 0.0432
Value for PRG4 #3 under “viable cells, % of control”: 94.5

Further entries:
| gene | reagent | total luciferase, z-score | total luciferase, % of control | luciferase per cell, z-score | viable cells, % of control |
| --- | --- | --- | --- | --- | --- |
| UPB1 | 1 | 0.25 | 86.9 | 0.556 | 83.8 |
| UPB1 | 2 | 0.299 | 87.8 | 1.63 | 63.9 |
| UPB1 | 3 | 0.0175 | 82.2 | -0.0641 | 93.5 |
| CUX2 | 1 | 0.406 | 90 | 1.97 | 59.9 |
| CUX2 | 2 | -0.465 | 72.6 | -0.126 | 83.9 |
| CUX2 | 3 | -0.121 | 79.5 | -0.311 | 96.4 |
| NUS1 | 1 | -0.09 | 80.1 | -0.223 | 94.9 |
| NUS1 | 2 | -0.716 | 67.6 | -0.0688 | 77 |
| NUS1 | 3 | -0.191 | 78.1 | -0.255 | 93.3 |
| CADM2 | 1 | -0.609 | 69.8 | 0.345 | 71.2 |
| CADM2 | 2 | 1.84 | 118 | 1.42 | 91.1 |
| CADM2 | 3 | 0.922 | 100 | 0.258 | 105 |
| LETM2 | 1 | 0.153 | 84.9 | -0.319 | 103 |
| LETM2 | 2 | 0.297 | 87.8 | -0.0294 | 98.9 |
| LETM2 | 3 | -0.0653 | 80.6 | -1.32 | 127 |
| H2AP | 1 | 1.57 | 113 | 0.975 | 97.7 |
| H2AP | 2 | -0.0625 | 80.6 | -0.498 | 103 |
| H2AP | 3 | -0.289 | 76.1 | -0.784 | 105 |
| ZNF660 | 1 | 0.432 | 90.5 | 0.319 | 92.9 |
| ZNF660 | 2 | -1.2 | 58 | -1.84 | 105 |
| ZNF660 | 3 | -0.277 | 76.4 | -0.924 | 109 |
| HMGCL | 1 | 0.971 | 101 | 0.984 | 87.3 |
| HMGCL | 2 | -0.232 | 77.3 | -0.452 | 97.3 |
| HMGCL | 3 | -1.14 | 59.2 | -2.18 | 117 |
| PKHD1 | 1 | -0.2 | 77.9 | -0.816 | 108 |
| PKHD1 | 2 | -0.26 | 76.7 | 0.113 | 83.2 |
| PKHD1 | 3 | -1.01 | 61.8 | -0.658 | 82.2 |
